This note sets out measurements from PubChem BioAssay AID445 (National Center for Advancing Translational Sciences (NCATS), 2006).

Some of the results follow. These are further read-outs of the screen, such as a control signal, another cell line or another target. No call is given for them. The list favours compounds with an active or inconclusive main result. Words in brackets tell the shape of the fitted curve; partial curves, single points and poor fits give uncertain potencies.

The nature of the test: IkB Signaling. The conditions noted are these: ABC-DLBCL IkBa-CBG/CBR dual luciferase ratio (green luciferase fused to IkBa over red control in OCI-Ly3 lymphoma cells), 4 h. The method in brief:
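Curves were fitted separately to fusion (green), unfused (red) and ratio luminescence, then classed by r2, magnitude and activity. Cells: OCI-Ly3, 4 h compound plus doxycycline at 37C; 10 uM MG-132 defined full response.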

Where [1] appears, read: measured here: control luc red channel unless noted.
[2] abbreviates: measured here: IkB-luc green channel.
Setting [3] is: measured here: control luc red channel.

With `Cc1nn(CC(O)Cn2c3c(c4ccccc42)CCN(C)C3=O)c(C)c1Br` (configuration not stated), the concentration at half-maximal activity (AC50) under setting [1] was 12.6 µM [falling, partial curve]. Regarding `CCOc1ccc(NC(=O)c2c(NCc3cccs3)sc3c2CCC(C)C3)cc1` (configuration not stated), the AC50 under setting [1] was 39.8 µM [falling, single point].

For `CCCCN(C)CCCNC(=O)c1cn(CC)c2ccc(S(=O)(=O)N3CCc4ccccc4C3)cc2c1=O`, the AC50 under setting [1] was 6.31 µM [falling, full curve]. As to `COc1ccccc1CNC(=O)c1cc(S(=O)(=O)N2CCCC(C)C2)cn1C` (configuration not stated), under setting [1], the AC50 is 10 µM [falling, partial curve, poor fit]. As for `CCc1ccc(NC(=O)CC2C(=O)N(c3ccc(F)cc3)C(=O)N2Cc2ccc(F)cc2)cc1` (configuration not stated), the AC50 under setting [1] was 20 µM [falling, partial curve]. Take `Cc1ccc(-n2nc(C)c3c(C(F)(F)F)cc(-c4cccnc4)nc32)cc1C`: the half-maximal activity concentration (AC50) under setting [1] is 39.8 µM [falling, single point]. Regarding `O=C(Nc1cccnc1)c1cc2c(ccc3ccccc32)o1`, under setting [1], the AC50 was 3.16 µM [falling, full curve]. As to `Cc1ccc2nc(C(O)C(O)c3nc4ccc(C)cc4[nH]3)[nH]c2c1` (configuration not stated), the half-maximal activity concentration (AC50) under setting [1] was 10 µM [falling, partial curve].

For the compound `O=C(c1cnn(-c2ccc(F)cc2)c1-n1cccc1)N1CCN(c2ccccc2)CC1`, under setting [1], the half-maximal activity concentration (AC50) was 20 µM [falling, partial curve]. In the case of `CCOc1ccc(-c2cn3nc(CC(C)C)sc3n2)cc1`, the concentration at half-maximal activity (AC50) under setting [1] is 5.01 µM [rising, partial curve]. Same read-out and setting: then `COc1ccc(CC(=O)NCC(c2cccs2)S(=O)(=O)c2ccc(F)cc2)cc1` (configuration not stated), with 39.8 µM [falling, single point]; and `Cc1ccc(CNC(=O)c2c(Nc3ccccc3C)sc(C(=O)c3ccc(F)cc3)c2N)cc1`, with 31.6 µM [falling, single point].

For `COc1cccc(-c2nn(C)c3sc(C(=O)NCc4ccc(OC)cc4OC)cc23)c1`, the half-maximal activity concentration (AC50) under setting [1] was 3.98 µM [falling, full curve]. For `CC(C)c1cc(-c2nc(-c3ccc(Cl)cc3)no2)n[nH]1`, under setting [1], the AC50 is 25.1 µM [falling, single point]. The same measure, in the same setting: as for `O=C(CCn1c(=O)c2ccccc2n(CC(=O)Nc2ccc(F)cc2)c1=O)NCCc1ccccc1`, the figure is 12.6 µM [falling, partial curve]. `CCc1ccc(C2CC(=O)Nc3c2c(=O)nc2c(C)cccn32)cc1` (configuration not stated): under setting [1], the AC50 is 0.0631 µM [falling, full curve, poor fit].

For `COc1ccccc1C(=O)Nc1ccc(C(=O)OCc2cc(=O)n3c4c(sc3n2)CCCC4)cc1`, the concentration at half-maximal activity (AC50) under setting [1] is 3.16 µM [falling, full curve]. On to `Cc1ccc(CNC(=O)c2c(Nc3c(C)cccc3C)sc(C(=O)c3ccccc3)c2N)cc1`, for which the AC50 under setting [1] was 39.8 µM [falling, single point]. `COc1ccccc1NC(=O)c1cnn(-c2ccccc2)c1-n1cccc1`: under setting [1], the concentration at half-maximal activity (AC50) is 6.31 µM [falling, partial curve]. For the compound `c1ccc(-c2cn3nc(-c4ccccc4)sc3n2)cc1`, the AC50 is 1.26 µM [rising, partial curve] under setting [2] and 0.158 µM [falling, full curve] under setting [3]. Turning to `CCOC(=O)c1ccccc1NC(=O)c1c(C)oc2ncnc(N3CCOCC3)c12`, under setting [1], the AC50 is 31.6 µM [falling, single point].

`Cc1ccccc1-c1ccc2ncnc(-n3ccnc3)c2c1`: the concentration at half-maximal activity (AC50) under setting [1] is 3.98 µM [rising, single point] [measured here: IkB-luc green channel]. In the case of `Cc1cccc(-n2c(SCC(=O)Nc3ccc(C)c(C)c3)nc3n[nH]c(C)c3c2=N)c1`, the AC50 under setting [1] was 20 µM [falling, single point]. On to `CCCCC(CC)CNC(=O)CCCCCn1c(=O)[nH]c2ccsc2c1=O` (configuration not stated), for which the AC50 under setting [1] is 10 µM [falling, partial curve]. The same measure, in the same setting: as for `CCc1ccc(-n2c(=O)c3ccccc3n(Cc3ccccc3C#N)c2=O)cc1`, the figure is 0.1 µM [rising, partial curve, poor fit]; as for `CC(C)c1ccc(NC(=O)c2ccc(=O)n(Cc3ccccc3)c2)cc1`, 20 µM [falling, single point]; as for `CCOc1ccc(-c2noc(CCC(=O)O)n2)cc1`, 0.398 µM [falling, full curve].

For the compound `O=C(CN1C2CCCC1CC(NC(=O)c1ccco1)C2)Nc1ccccc1C(F)(F)F` (configuration not stated), the AC50 under setting [1] was 39.8 µM [falling, single point]. `C=CCn1c2ccccc2c2nnc(SCN3C(=O)c4ccccc4C3=O)nc21`: the concentration at half-maximal activity (AC50) under setting [1] is 10 µM [falling, partial curve].

With `CCN(CC)c1ccc2c(c1)CCCN2`, the AC50 under setting [1] was 39.8 µM [rising, single point] [measured here: IkB-luc green channel].

Regarding `O=C(O)CCn1ccc2cc(S(=O)(=O)N3CCCCCC3)ccc21`, the concentration at half-maximal activity (AC50) under setting [1] is 39.8 µM [falling, single point]. The same measure, in the same setting: as for `CC(=O)c1cccc(NC(=O)c2cc3ccccn3n2)c1`, the figure is 15.8 µM [falling, partial curve]; as for `O=C(c1noc2c1CCc1ccccc1-2)N1CCCc2ccccc21`, 15.8 µM [falling, partial curve].

With `Cc1c(C(=O)OCCOC(C)C)[nH]c2c1C(=O)CC(c1ccco1)C2` (configuration not stated), the AC50 under setting [2] was 0.398 µM [rising, full curve] and the concentration at half-maximal activity (AC50) under setting [3] is 0.251 µM [rising, full curve]. Regarding `COc1cc(Nc2nc(-c3ccc(OC)c(OC)c3)nc3ccccc23)cc(OC)c1`, under setting [1], the AC50 was 12.6 µM [falling, partial curve]. For `Cc1ccc(NC(=O)OCC(F)(F)C(F)F)cc1NC(=O)OCC(F)(F)C(F)F`, the AC50 under setting [1] was 20 µM [falling, partial curve]. In the case of `COc1ccccc1Nc1c2c(nc3ccc(NC(=O)c4ccc(N(C)C)cc4)cc13)CCCC2`, the half-maximal activity concentration (AC50) under setting [1] was 15.8 µM [falling, partial curve]. As for `CC(C)[C@H](NC(=O)OC(C)(C)C)c1nnc(SCC(=O)Nc2ccc(Br)cc2)o1`, the concentration at half-maximal activity (AC50) under setting [1] is 12.6 µM [falling, partial curve]. With `Cc1ccc(-n2c(=O)c3oc4ccccc4c3n(Cc3cccc(F)c3)c2=O)cc1C`, under setting [1], the AC50 is 12.6 µM [falling, single point]. As for `Cc1ccc(C(=O)c2c(N)c(C(=O)Nc3cccc(C(F)(F)F)c3)c3ccccn23)cc1`, under setting [1], the AC50 was 0.00398 µM [rising, full curve, poor fit].

Broadly, the AC50 is the concentration at which the activity in the assay is half-maximal.
